3 molecules from PMC8699718, “A structurally conserved site in AUP1 binds the E2 enzyme UBE2G2 and is essential for ER-associated degradation” (PLoS Biology, 2021) can be followed below.

The chains behind the UniProt entries cited, without tags or fusion partners.
UniProt P60604: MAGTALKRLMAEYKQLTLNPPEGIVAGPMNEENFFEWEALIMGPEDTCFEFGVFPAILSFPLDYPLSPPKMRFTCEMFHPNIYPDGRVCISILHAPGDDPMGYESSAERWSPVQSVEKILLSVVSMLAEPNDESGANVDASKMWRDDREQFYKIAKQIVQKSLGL

The target of assay [1] is UBE2G2 (co-expressed with GST-AUP1(379 to 410) for crystallization) (UniProt P60604). As to the kind of experiment: crystal structure; complex of AUP1(379 to 410) and UBE2G2 co-expressed in E. coli; sitting drop, 30% PEG 4000, 0.2 M NH4Ac, 0.1 M NaAc pH 4.6; 1.74 Å; both purified.
The target in assay [2] is T1, GST-AUP1 (aa 292 to 410) (UniProt Q9Y679).
T1 sequence: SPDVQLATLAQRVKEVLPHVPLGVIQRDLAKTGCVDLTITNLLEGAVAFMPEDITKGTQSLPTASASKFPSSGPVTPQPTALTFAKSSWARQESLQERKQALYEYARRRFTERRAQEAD
Briefly: condition: approximately 0.2 pmol E2 with approximately 3 pmol GST fusion in 200 μl; pull-down; 0.1 μg GST fusion (approximately 3 pmol) prebound to Glutathione Sepharose 4B, incubated with approximately 0.2 pmol in vitro translated ^35S-labeled E2 in 200 μl 25 mM Tris-HCl pH 7.4, 50 mM NaCl, 5 mM DTT, 0.5% IGEPAL CA-630, overnight at 4°C; only the target purified.

Results are given in words; binding and its absence hold for the method and conditions named. For part of these data: In cells and extracts the contact can be indirect. For part of these data: Sequences can lack the tags named with a protein. Some results given as binding are weak or reduced against the parent protein; the word gives no strength.

For the molecule SWARQESLQERKQALYEYARRRFTERRAQEAD (domain or fragment, UniProt Q9Y679 379-410) [AUP1(379 to 410)], the binding entry in assay [1] is reported as “binds”.

B1: in vitro translated ^35S-labeled UBE2J1 cytoplasmic domain (aa 1 to 283) (domain or fragment, UniProt Q9Y385 1-283)
chain: METRYNLKSPAVKRLMKEAAELKDPTDHYHAQPLEDNLFEWHFTVRGPPDSDFDGGVYHGRIVLPPEYPMKPPSIILLTANGRFEVGKKICLSISGHHPETWQPSWSIRTALLAIIGFMPTKGEGAIGSLDYTPEERRALAKKSQDFCCEGCGSAMKDVLLPLKSGSDSSQADQEAKELARQISFKAEVNSSGKTISESDLNHSFSLTDLQDDIPTTFQGATASTSYGLQNSSAASFHQPTQPVAKNTSMSPRQRRAQQQSQRRLSTSPDVIQGHQPRDNHTD
modifications: ^35S methionine-labeled
As for B1, the binding entry in assay [2] is on record as “no binding”.

B2: in vitro translated ^35S-labeled UBE2G1 (enzyme, UniProt P62253 1-170)
chain: MTELQSALLLRRQLAELNKNPVEGFSAGLIDDNDLYRWEVLIIGPPDTLYEGGVFKAHLTFPKDYPLRPPKMKFITEIWHPNVDKNGDVCISILHEPGEDKYGYEKPEERWLPIHTVETIMISVISMLADPNGDSPANVDAAKEWREDRNGEFKRKVARCVRKSQETAFE
modifications: ^35S methionine-labeled
Consider B2, for which the binding entry in assay [2] is on record as “no binding”.
